## Percent effect of library compounds

By UniProt entry, the sequences of proteins in these tests, tags left out. Residues count along the entry.
UniProt Q4DA54, 1-478: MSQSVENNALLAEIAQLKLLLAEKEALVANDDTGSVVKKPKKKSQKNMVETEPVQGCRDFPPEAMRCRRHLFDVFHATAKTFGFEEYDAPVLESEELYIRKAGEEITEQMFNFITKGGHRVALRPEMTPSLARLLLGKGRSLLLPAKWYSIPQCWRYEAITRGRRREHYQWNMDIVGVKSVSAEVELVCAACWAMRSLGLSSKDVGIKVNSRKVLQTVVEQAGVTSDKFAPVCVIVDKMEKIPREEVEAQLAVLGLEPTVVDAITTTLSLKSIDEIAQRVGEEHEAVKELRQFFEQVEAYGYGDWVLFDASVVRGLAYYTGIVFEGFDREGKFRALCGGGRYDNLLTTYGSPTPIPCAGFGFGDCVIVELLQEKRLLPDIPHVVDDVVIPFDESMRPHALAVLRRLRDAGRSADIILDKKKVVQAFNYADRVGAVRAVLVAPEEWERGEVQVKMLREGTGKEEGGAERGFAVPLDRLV
UniProt P9WNZ1, whole entry: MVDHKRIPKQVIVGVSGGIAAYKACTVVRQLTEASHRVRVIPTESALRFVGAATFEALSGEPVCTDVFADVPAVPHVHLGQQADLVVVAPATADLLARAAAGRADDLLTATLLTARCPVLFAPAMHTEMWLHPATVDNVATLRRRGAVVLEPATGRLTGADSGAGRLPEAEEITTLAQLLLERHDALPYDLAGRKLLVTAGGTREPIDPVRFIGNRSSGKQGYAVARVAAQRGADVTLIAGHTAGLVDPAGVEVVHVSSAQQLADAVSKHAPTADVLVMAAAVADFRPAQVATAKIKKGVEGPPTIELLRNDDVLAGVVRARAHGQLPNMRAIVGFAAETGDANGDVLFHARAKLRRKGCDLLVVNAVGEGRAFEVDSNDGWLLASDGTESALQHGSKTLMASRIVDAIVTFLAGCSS

The values are deposited in ChEMBL (CHEMBL3988442, “University of Dundee, Small-Polar-MMV Screening Library” (2021)).

Each number is a percent effect as filed.
The record does not define 0% and 100%; most values in the screen are far below 50% and negative numbers occur (in some assays of this library far below -100).
The compounds are a random part of those screened.
Two or more numbers in one place are separate tests of the same structure; such repeats can differ widely.

Toxoplasma: 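Assay of Toxoplasma gondii numbers, read through their beta-galactosidase reporter with a colour substrate. Compounds at 10 µM. Higher reads as fewer parasites (inferred from which compounds were picked for retests). About 67,000 compounds were tested under these conditions; 0.38% (about 260) showed 50% or more at least once.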
TcHisRS: 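Enzyme assay of histidyl-tRNA synthetase; the read-out is not stated. Target: Histidine-tRNA ligase, Trypanosoma cruzi CL Brener (UniProt Q4DA54). Tested at 30 µM. Direction is inferred from retests: higher values go with stronger inhibition. About 69,000 compounds were tested under these conditions; 0.045% (about 31) showed 50% or more at least once.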
CoaBC: 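Enzyme assay of CoaBC with a phosphate dye (Biomol Green) read at 650 nm. Target: Coenzyme A biosynthesis protein CoaBC, Mycobacterium tuberculosis (UniProt P9WNZ1). Tested at 30 µM. Direction is inferred from only a few compounds that gave an IC50; most scored high, so higher reads as stronger inhibition. Most strong results did not repeat in a second test. About 67,000 compounds were tested under these conditions; 0.06% (about 40) showed 50% or more at least once.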
Leishmania in macrophages: 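Cell assay of Leishmania donovani living inside macrophages; the read-out is not stated. Compounds at 30 µM. The record gives no direction; compounds that gave an IC50 in retests scored well above the rest, so higher reads as stronger inhibition. About 69,000 compounds were tested under these conditions; 1.5% (about 1,000) showed 50% or more at least once.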

CN(CCc1ccccc1)Cc1cc(C(=O)N2CCCC2(C)C)no1 gave Toxoplasma: -8.255%; TcHisRS: 0.8264%; CoaBC: -7.097%; Leishmania in macrophages: -50.26%. For Cc1cc(F)ccc1S(=O)(=O)N1CCN(C)c2ccncc21 the result was Toxoplasma: 1.097%; TcHisRS: 4.663%; CoaBC: 10.66%; Leishmania in macrophages: 10.16%. With Cc1noc(C(C)N2CCN(c3ccc(C#N)cn3)CC2)n1 (configuration not stated) the screen gave Toxoplasma: 6.211%; TcHisRS: 6%; CoaBC: 3.294%; Leishmania in macrophages: -9.651%. For Cc1ccsc1C(=O)N1CCc2ncc(CN(C)C)n2CC1 the result was TcHisRS: 6.186%; CoaBC: 3.448%. [H][C@@]12CN(Cc3cccc(C)n3)C[C@]1([H])OCCN2C read Toxoplasma: 0.8819%; Leishmania in macrophages: 15.16% & 26.02%. With CC(C)CNC(=O)[C@H]1CCS(=O)(=O)[C@@H]2CN(Cc3cccnc3)C[C@H]12 the screen gave TcHisRS: 5.607%; CoaBC: -1.728%. Cc1ncsc1C(=O)NC1CCN(Cc2ccc(C(F)(F)F)cc2)CC1 read Toxoplasma: 8.431%; TcHisRS: 3.458%; CoaBC: 4.773%; Leishmania in macrophages: 9.064%.

For CCN1CCN(CC(O)c2ccc(Br)cc2)CC1 (configuration not stated) the result was Toxoplasma: 3.65%; TcHisRS: 4.255%; CoaBC: -7.158%; Leishmania in macrophages: 33.54%. N[C@@H]1CC[C@@H](Nc2nccc(CCC(F)(F)F)n2)C1 gave Toxoplasma: -58.23%; TcHisRS: 8.387%; CoaBC: 1.208%; Leishmania in macrophages: 4.736%. With CCCS(=O)(=O)N1CC(=O)N(Cc2ccccc2OC)CC(O)C1 (configuration not stated) the screen gave Toxoplasma: -3.547%; TcHisRS: 8.989%; CoaBC: -2.906%; Leishmania in macrophages: -0.4852%. COC(=O)c1ccc(OC)c(CN2CCN(CC(C)C)C(=O)C2C)c1 (configuration not stated) read Toxoplasma: -13.83%; TcHisRS: 9.877%; CoaBC: -3.194%; Leishmania in macrophages: 3.748%. Result for [H][C@]12CCN(S(=O)(=O)Cc3ccccc3)[C@@]1([H])CC[C@H](COCC)O2 was Toxoplasma: 4.003%; Leishmania in macrophages: -1.884%. Result for O=C(O)C(F)(F)F.[H][C@@]12CN(C(=O)c3ccco3)C[C@@]1([H])N(Cc1cccnc1)C(=O)CO2 was Toxoplasma: 8.126%; Leishmania in macrophages: -7.344% & 12.42%. O=C(CCOCC(F)(F)F)N1CCCC1c1noc(C2CC2)n1 (configuration not stated) gave Toxoplasma: -15.26%; TcHisRS: 2.006%; CoaBC: 7.826%; Leishmania in macrophages: 17.8%.

Result for CN(C)Cc1ccnc(C2CCCN2Cc2ccncc2)n1 (configuration not stated) was Toxoplasma: 19.28%; TcHisRS: -0.5405%; CoaBC: -8.056%; Leishmania in macrophages: 3.28%. For Cc1nnc(NC(=O)N2CCC(N3CCCCC3)CC2)s1 the result was Toxoplasma: -3.975%; TcHisRS: 13.25%; CoaBC: 1.238%; Leishmania in macrophages: 9.126%. CCOCC1COCCC12CCN(C(=O)CS(C)(=O)=O)CC2 (configuration not stated) read Toxoplasma: -56.36%; TcHisRS: 6.329%; Leishmania in macrophages: 6.327%.

Repeated from the top, 2 entries:

compound	Toxoplasma	TcHisRS	CoaBC	Leishmania in macrophages
CN(CCc1ccccc1)Cc1cc(C(=O)N2CCCC2(C)C)no1	-8.255	0.8264	-7.097	-50.26
Cc1cc(F)ccc1S(=O)(=O)N1CCN(C)c2ccncc21	1.097	4.663	10.66	10.16